Data as given in PubChem BioAssay AID1259254 (NCATS, 2017).

- Screen: 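Genome-wide screen for genes that prevent DNA re-replication in cancer cells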 (primary screen)
- System: human HCT116 colorectal cancer cells
- Reagents: single siRNA against human genes
- Duration: 3 days
- Measurement: 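Imaged Hoechst DNA stain sorts each cell into a cycle phase by DNA amount; per plate, G2 fraction set to 0% for non-targeting and 100% for GMNN siRNA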
- Direction: G2 robust z-score and G2 cells, % of GMNN control: higher = more G2 cells, more excess DNA replication; raw share of cells in G2: higher = larger share of cells with G2 DNA content
- Active means: 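Active siRNAs have a G2 robust z of 5 or more median absolute deviations over the median, which in these data means about 38% or higher of GMNN control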
In all, the deposit lists about 59,000 reagents; below is an unselected part. About 1,550 of all reagents (2.6%) were called active. 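G2 share is only a proxy for re-replication; each gene was hit by three separate siRNAs, and active genes were retested.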 The raw values are shown without normalisation. The record does not give: the amount of reagent.

| gene | PubChem SID | G2 robust z-score | G2 cells, % of GMNN control | raw share of cells in G2 (%) | activity call |
| --- | --- | --- | --- | --- | --- |
| CST7 (GeneID 8530) | SID160720251 | -0.248 | 1.22 | 5.09 | inactive |
| CST7 (GeneID 8530) | SID160720252 | 1.55 | 13.9 | 9.68 | inactive |
| CST7 (GeneID 8530) | SID160720254 | 1.92 | 16.5 | 11.1 | inactive |
| CHFR (GeneID 55743) | SID160744236 | 0.215 | 4.48 | 6.2 | inactive |
| CHFR (GeneID 55743) | SID160744237 | 0.199 | 4.37 | 8.34 | inactive |
| CHFR (GeneID 55743) | SID160744238 | -0.741 | -2.25 | 3.63 | inactive |
| GDNF (GeneID 2668) | SID160732882 | -0.0877 | 2.35 | 4.44 | inactive |
| GDNF (GeneID 2668) | SID160770386 | 1.04 | 10.3 | 10.1 | inactive |
| GDNF (GeneID 2668) | SID160770395 | 0.728 | 8.09 | 7.05 | inactive |
| CLPTM1 (GeneID 1209) | SID160732379 | -0.0723 | 2.46 | 4.49 | inactive |
| CLPTM1 (GeneID 1209) | SID160744720 | -0.413 | 0.0598 | 5.33 | inactive |
| CLPTM1 (GeneID 1209) | SID160744741 | -0.6 | -1.25 | 3.63 | inactive |
| PSMD8 (GeneID 5714) | SID160715250 | -0.169 | 1.78 | 4.17 | inactive |
| PSMD8 (GeneID 5714) | SID160715251 | 3.52 | 27.7 | 17.8 | inactive |
| PSMD8 (GeneID 5714) | SID160731586 | 4.48 | 34.5 | 15.6 | inactive |
| MIX23 (GeneID 131076) | SID160757033 | 0.577 | 7.03 | 6.82 | inactive |
| MIX23 (GeneID 131076) | SID160757034 | 1.14 | 11 | 6.6 | inactive |
| MIX23 (GeneID 131076) | SID160757035 | -0.392 | 0.209 | 2.65 | inactive |
| NRGN (GeneID 4900) | SID160731308 | -1.05 | -4.45 | 2.46 | inactive |
| NRGN (GeneID 4900) | SID160778244 | -1.77 | -9.5 | 2.47 | inactive |
| NRGN (GeneID 4900) | SID160778245 | -0.601 | -1.26 | 4.98 | inactive |
| OR4C15 (GeneID 81309) | SID160750707 | 0.803 | 8.62 | 8.02 | inactive |
| OR4C15 (GeneID 81309) | SID160750708 | -0.866 | -3.13 | 2.94 | inactive |
| OR4C15 (GeneID 81309) | SID160750709 | 0.542 | 6.78 | 4.23 | inactive |
| DLGAP4 (GeneID 22839) | SID160731825 | -0.308 | 0.798 | 5.3 | inactive |
| DLGAP4 (GeneID 22839) | SID160731834 | 1.02 | 10.2 | 8.33 | inactive |
| DLGAP4 (GeneID 22839) | SID160731842 | 3.86 | 30.1 | 14.5 | inactive |
| HPX (GeneID 3263) | SID160775297 | -1.39 | -6.83 | 1.7 | inactive |
| HPX (GeneID 3263) | SID160775298 | 4.31 | 33.3 | 18.4 | inactive |
| HPX (GeneID 3263) | SID160775299 | 0.297 | 5.06 | 6.88 | inactive |
